In patent US8309582B2, “Small molecule Bcl-Xl/Bcl-2 binding inhibitors” (The Ohio State University Research Foundation, priority 2004, dated 2012):
At least one structure is not confirmed: it was looked up by name or label, or the drawing left a doubt.

The chains behind the UniProt entries cited, without tags or fusion partners.
UniProt Q07817, whole entry: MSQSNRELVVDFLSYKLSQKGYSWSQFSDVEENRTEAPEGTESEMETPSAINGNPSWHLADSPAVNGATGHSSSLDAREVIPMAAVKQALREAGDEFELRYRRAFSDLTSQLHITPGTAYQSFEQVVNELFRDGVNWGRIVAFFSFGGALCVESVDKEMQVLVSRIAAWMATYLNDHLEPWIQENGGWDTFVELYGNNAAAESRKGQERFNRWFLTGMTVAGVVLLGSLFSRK
UniProt P10415, whole entry: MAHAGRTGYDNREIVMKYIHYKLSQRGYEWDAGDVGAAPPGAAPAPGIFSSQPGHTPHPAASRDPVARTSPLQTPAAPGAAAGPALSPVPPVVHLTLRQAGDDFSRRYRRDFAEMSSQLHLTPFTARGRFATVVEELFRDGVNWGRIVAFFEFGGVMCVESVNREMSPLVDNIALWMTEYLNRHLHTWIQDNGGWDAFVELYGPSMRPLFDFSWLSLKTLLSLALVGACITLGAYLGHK

Assays:
Assay type in all cases: cell-based
PC-3 cells = experiment: Cell viability analysis (MTT) in PC-3 cells; conditions: even at 50 μM, 24 h, serum-free medium
Method: Cell viability analysis. The effect of individual test agents on cell viability was assessed by using the MTT {[3-(4,5-dimethylthiazol-2-yl)-2,5-diphenyl-2H-tetrazolium bromide]} assay in six to twelve replicates. […] Controls received DMSO vehicle at a concentration equal to that in drug-treated cells. […] Supernatants were removed from the wells, and the reduced MTT dye was solubilized in 200 μl/well DMSO. Absorbance at 570 nm was determined on a plate reader.
Determination of IC50 values. Data from cell viability and FP assays were analyzed by using the CalcuSyn software (Biosoft, Ferguson, Mo.) to determine IC50 values, in which the calculation was based on the medium effect equation (18), i.e., Log(fa/fu)=m log(D)−m log(Dm) (equation 1), where fa and fu denote fraction affected and unaffected, respectively; m represents the Hill-type coefficient signifying the sigmoidicity of the dose-effect curve; D and Dm are the dose used and IC50, respectively.

Bcl-xL/Bak = target: T1, Bcl-xL/Bak (Homo sapiens, UniProt Q07817); experiment: Co-immunoprecipitation of Bak with Bcl-xL in PC-3 cells; conditions: 50 μM, 12 h, compared to DMSO control
T1 construct: endogenous in cells; host or cells: PC-3 prostate cancer cells
Method: (§1) Co-immunoprecipitation. […] After centrifugation at 13000×g for 15 min, the supernatants were collected, pre-incubated with protein A-Sepharose (Sigma, St. Louis, Mo.) for 15 min, and centrifuged at 1000×g for 5 min. The supernatants were exposed to Bcl-2 or Bcl-xL antibodies in the presence of protein A-Sepharose at 4° C. for 2 h. After brief centrifugation, protein A-Sepharose were collected, washed with the aforementioned lysis buffer 2 times, suspended in 2×SDS sample buffer, and subjected to Western blot analysis with antibodies against Bak.

[1] = system: Bcl-xL, Bcl-2, Bax, Bak, Bad, and Bid; experiment: Expression levels of Bcl-2 family members in PC-3 cells (Western blot); conditions: 30 μM, except slight decrease in Bad at 24 h
Bcl-2/Bak = target: T2, Bcl-2/Bak (Homo sapiens, UniProt P10415); experiment: Co-immunoprecipitation of Bak with Bcl-2 in PC-3 cells; conditions: 50 μM, 12 h, compared to DMSO control
T2 construct: endogenous in cells; host or cells: PC-3 prostate cancer cells
Method: as §1

caspase-9 = experiment: Caspase-9 activation in PC-3 cells (Western blot); conditions: 24 h
Method: Immunoblotting. Cells in T-75 flasks were collected by scraping, and suspended in 60 μl of phosphate-buffered saline (PBS). Two μl of the suspension was taken for protein analysis using the Bradford assay kit (Bio-Rad, Hercules, Calif.). To the remaining solution was added the same volume of 2×SDS-PAGE sample loading buffer (100 mM Tris-HCl, pH 6.8, 4% SDS, 5% β-mercaptoethanol 20% glycerol, and 0.1% bromophenol blue). The mixture was sonicated briefly, and boiled for 5 min. Equal amounts of proteins were loaded onto 10% SDS-PAGE gels.
After electrophoresis, protein bands were transferred to nitrocellulose membranes in a semidry transfer cell. The transblotted membrane was washed twice with Tris-buffered saline (TBS) containing 0.1% Tween 20 (TBST). After blocking with TBST containing 5% nonfat milk for 40 min, the membrane was incubated with the appropriate primary antibody in TBST-1% nonfat milk at 4° C. overnight. All primary antibodies were diluted 1:1000 in 1% nonfat milk-containing TBST. After treatment with the primary antibody, the membrane was washed three times with TBST for a total of 15 min, followed by incubation with goat anti-rabbit or anti-mouse IgG-horseradish peroxidase conjugates (diluted 1:5000) for 1 h at room temperature and three washes with TBST for a total of 1 h. The immunoblots were visualized by enhanced chemiluminescence.

CCc1ccc(CCOc2ccc(CC3SC(=O)NC3=O)cc2)nc1 (centres unmarked) [PG, pioglitazone, reference compound]
effects on apoptotic death in PC-3 cells (PC-3 cells): marginal effects

Cc1c(C)c2c(c(C)c1O)CCC(C)(COc1ccc(CC3SC(=O)NC3=O)cc1)O2 (centres unmarked) [TG, troglitazone, reference compound]
level of Bak associated with Bcl-xL (Bcl-xL/Bak): significantly reduced | change in the expression level of Bcl-2 members [1]: did not cause appreciable change | level of Bak associated with Bcl-2 (Bcl-2/Bak): significantly reduced | caspase-9 activation (caspase-9): dose-dependent
